PubChem BioAssay AID1159578, Peter MacCallum Cancer Centre | 2015

Purpose: 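Knock-downs that alter how fast lymphatic endothelial cells migrate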 (primary screen)
Cell system: human lymphatic endothelial cells
Reagent: siRNA pool against human genes, 40 nM
Timing: 48 h after transfection
Measurement: 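High-content imaging of dye-stained cells in a scratch assay measures filled wound area and nuclei per well; duplicate means given as ratio to mock and robust z-score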
Direction: migration robust z-score: higher = faster migration into the scratch; nuclei per well: higher = more cells in the well
Active means: 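Migration changed when robust z exceeds 2 or falls below -2 and mean nuclei number is at least 3300; otherwise not called changed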
Calls: active = migration changed; inactive = no migration change, or too few cells
The whole screen tested about 18,000 reagents; this is a random part of them. In the full data, about 1,030 (5.7%) got an active call. 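Inactive calls also include pools with fewer than 3300 nuclei, whose migration was not assessed.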 Raw values vary from plate to plate and are shown uncorrected. Further read-outs or replicates are left out here.

After knock-down of AFDN (afadin, adherens junction formation factor), the screen gave migration robust z-score -1.26; migration class with cell-count check migration z between -2 and 2; enough cells; nuclei per well, duplicate mean 5520; inactive.
RAB33A (RAB33A, member RAS oncogene family) gave migration robust z-score -0.52; migration class with cell-count check migration z between -2 and 2; enough cells; nuclei per well, duplicate mean 6712; inactive.
Silencing of GEMIN7 (gem nuclear organelle associated protein 7) came out at: migration robust z-score 0.57; migration class with cell-count check migration z between -2 and 2; enough cells; nuclei per well, duplicate mean 5616; inactive.
After knock-down of GDF11 (growth differentiation factor 11) the results were migration robust z-score -0.49; migration class with cell-count check migration z between -2 and 2; enough cells; nuclei per well, duplicate mean 5028; inactive.
With knock-down of FAABTP (fatty acid amide binding transmembrane protein), the screen gave migration robust z-score 0; migration class with cell-count check migration z between -2 and 2; enough cells; nuclei per well, duplicate mean 5610; inactive.
After knock-down of LAMTOR3 (late endosomal/lysosomal adaptor, MAPK and MTOR activator 3), the screen gave migration robust z-score 0.32; migration class with cell-count check migration z between -2 and 2; enough cells; nuclei per well, duplicate mean 6271; inactive.
With knock-down of UBE2E1 (ubiquitin conjugating enzyme E2 E1) the results were migration robust z-score -0.42; migration class with cell-count check migration z between -2 and 2; enough cells; nuclei per well, duplicate mean 5768; inactive.
For ATP5MJ (ATP synthase membrane subunit j) the deposit lists migration robust z-score 0.66; migration class with cell-count check migration z between -2 and 2; enough cells; nuclei per well, duplicate mean 6631; inactive.
For SDHAF3 (succinate dehydrogenase complex assembly factor 3), the values are migration robust z-score -0.3; migration class with cell-count check migration z between -2 and 2; enough cells; nuclei per well, duplicate mean 5220; inactive.
For STING1 (stimulator of interferon response cGAMP interactor 1) the deposit lists migration robust z-score -0.2; migration class with cell-count check migration z between -2 and 2; enough cells; nuclei per well, duplicate mean 5800; inactive.
Knock-down of TP53I11 (tumor protein p53 inducible protein 11) gave: migration robust z-score -2.8; migration class with cell-count check migration z below -2; enough cells; nuclei per well, duplicate mean 5722; active.
Depletion of EPHA4 (EPH receptor A4) gave: migration robust z-score 1.79; migration class with cell-count check migration z between -2 and 2; enough cells; nuclei per well, duplicate mean 6545; inactive.
Knock-down of SLC25A38 gave: migration robust z-score 1.51; migration class with cell-count check migration z between -2 and 2; enough cells; nuclei per well, duplicate mean 4727; inactive.
Silencing of ETS2-AS1 (ETS2 antisense RNA 1) gave: migration robust z-score -0.74; migration class with cell-count check migration z between -2 and 2; enough cells; nuclei per well, duplicate mean 4857; inactive.
Depletion of SIX4 (SIX homeobox 4) resulted in: migration robust z-score 0.28; migration class with cell-count check migration z between -2 and 2; enough cells; nuclei per well, duplicate mean 4824; inactive.
Silencing of GALP (galanin like peptide) resulted in: migration robust z-score -0.97; migration class with cell-count check migration z between -2 and 2; enough cells; nuclei per well, duplicate mean 6424; inactive.
After knock-down of PDE8B (phosphodiesterase 8B), the record shows migration robust z-score -1.3; migration class with cell-count check migration z between -2 and 2; enough cells; nuclei per well, duplicate mean 4394; inactive.
After knock-down of GPR42 (G protein-coupled receptor 42) the results were migration robust z-score -0.16; migration class with cell-count check migration z between -2 and 2; enough cells; nuclei per well, duplicate mean 3776; inactive.
LPXN (leupaxin) scored migration robust z-score 0.32; migration class with cell-count check migration z between -2 and 2; enough cells; nuclei per well, duplicate mean 6402; inactive.
For IL32 (interleukin 32), the entry reads migration robust z-score -1.39; migration class with cell-count check migration z between -2 and 2; enough cells; nuclei per well, duplicate mean 6148; inactive.
After knock-down of TSN (translin) the results were migration robust z-score -1.32; migration class with cell-count check migration z between -2 and 2; enough cells; nuclei per well, duplicate mean 6165; inactive.

2 of these entries, set out differently.
gene knocked down,migration robust z-score,migration class with cell-count check,"nuclei per well, duplicate mean",outcome
STING1 (stimulator of interferon response cGAMP interactor 1),-0.2,migration z between -2 and 2; enough cells,5800,inactive
TP53I11 (tumor protein p53 inducible protein 11),-2.8,migration z below -2; enough cells,5722,active
